In paper PMC7819943, “Rice protein-binding microarrays: a tool to detect cis-acting elements near promoter regions in rice” one finds binding signal data, which are given here for 54 sequences.

The other results are listed elsewhere or left out.

This assay deals with T1, OsSMF1 (Oryza sativa, UniProt Q6ZLB0 1-436).
T1 sequence: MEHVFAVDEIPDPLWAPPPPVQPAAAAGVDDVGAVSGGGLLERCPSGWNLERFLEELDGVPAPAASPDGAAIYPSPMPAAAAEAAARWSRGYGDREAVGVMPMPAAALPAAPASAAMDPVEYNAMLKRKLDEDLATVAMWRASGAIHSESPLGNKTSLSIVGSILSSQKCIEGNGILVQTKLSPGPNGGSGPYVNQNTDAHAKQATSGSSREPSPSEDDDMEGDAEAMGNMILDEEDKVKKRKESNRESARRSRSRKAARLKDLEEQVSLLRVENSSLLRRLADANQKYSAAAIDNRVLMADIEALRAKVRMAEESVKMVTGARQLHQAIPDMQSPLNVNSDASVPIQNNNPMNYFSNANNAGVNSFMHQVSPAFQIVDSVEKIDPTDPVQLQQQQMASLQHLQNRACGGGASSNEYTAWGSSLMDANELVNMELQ
As to the kind of experiment: protein-binding microarray (RPBM); PBS, 2% BSA, 51.3 ng/ul salmon testes DNA, 50 uM zinc acetate, 200 nM TF, 25 C, 1 h; high values mean tight binding. The settings on record: protein: recombinant; tags: N-terminal polyhistidine and DsRed monomer fusion (pET32a); chain copies: 2; label: CyDye5-dUTP incorporated in the synthesized complementary strand; 3' TTTTT single-stranded linker to array surface; dsDNA, one strand shown. Put shortly:
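In PBS with 2% BSA, salmon testes DNA and 50 µM zinc acetate, 200 nM protein was incubated on a custom Agilent array at 25 °C for 1 h and then washed off. The array had been made double-stranded by primer extension with Cy5-dUTP and blocked with 2% BSA. The proteins were transcription factors fused N-terminally to polyhistidine and DsRed, expressed in E. coli BL21-CodonPlus and purified on Ni–NTA. The binding signal is per-feature fluorescence intensity (arbitrary units) from an Axon 4000B scanner.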
“TTTAATTAAATATTATATATAATTGTTTTAAAGGAAAATGCGGAGTCACCTAGTGCAG”: the binding signal was 11600 fluorescence intensity (a.u.). The value for “GGGCAGGGAAGGATCTTCGATAGGCTTTGATGAGCAGGGGCGGAGTCACCTAGTGCAG” was 3330 fluorescence intensity (a.u.). With “AGCCCAACTTCTACGGGCCGCACGTACGTGGCAATCTCGTCGGAGTCACCTAGTGCAG”, the binding signal was 13000 fluorescence intensity (a.u.).

For the sequence “CGGTGGTGCGCACAGATGTCTTCCTTGGTGTCACCACCCGCGGAGTCACCTAGTGCAG”, the binding signal was 4380 fluorescence intensity (a.u.). Turning to “CAATCTGTCATCTCTTTACCAGTCTCATTGACATGTGGGCCGGAGTCACCTAGTGCAG”, the binding signal was 3270 fluorescence intensity (a.u.). The value for “TATAAGAAACAAATCACTACCTCATGATGTAATTCTTTGGCGGAGTCACCTAGTGCAG” was 28900 fluorescence intensity (a.u.); that for “CCCTGTTTACACTACTTGTGATTTGACTCATGCTGGACTTCGGAGTCACCTAGTGCAG” was 3470 fluorescence intensity (a.u.). “GAATCACAATTCTCGCTAACAACCTCCGCATTCCCCTGCGCGGAGTCACCTAGTGCAG”: the binding signal was 10800 fluorescence intensity (a.u.). As for “GGGTCAAATTTCCACGTCAGCAAAACCAGGTGCCTATATTCGGAGTCACCTAGTGCAG”, the binding signal was 14900 fluorescence intensity (a.u.). In the case of “CTTACTAGTATTGCATTTATGACGCGGCGCAACCTCCGATCGGAGTCACCTAGTGCAG”, the binding signal is 7840 fluorescence intensity (a.u.). The value for “ATGCACCACAGATTCCGTTCGTCACGCGCCCGTTCACACCCGGAGTCACCTAGTGCAG” was 3590 fluorescence intensity (a.u.); that for “AGGATTGGACTGGCATTAGCTATGTCACTGGTAGATGGGACGGAGTCACCTAGTGCAG” was 3510 fluorescence intensity (a.u.). The same measure for “TTACCAGTACTAGCGCACTAAAGCATATACTGCCCTTTGCCGGAGTCACCTAGTGCAG”: 12100 fluorescence intensity (a.u.); for “ACGTATACGTTACGTACGTGTGGCCGTGCTTTAATCTCCCCGGAGTCACCTAGTGCAG”: 4330 fluorescence intensity (a.u.). Take “CAATACATAACAATAACTTCATTGACACATAAACAAATGGCGGAGTCACCTAGTGCAG”: the binding signal is 3340 fluorescence intensity (a.u.). The value for “TGCTCTATCATACGAAATGTCACACTGTTTTGTGCGTGTTCGGAGTCACCTAGTGCAG” was 3220 fluorescence intensity (a.u.); that for “GAGGCCGAACGAGCGAGGCTGTGTCAGCACGTTGACACCTCGGAGTCACCTAGTGCAG” was 5620 fluorescence intensity (a.u.).

Turning to “GACTCCTGAGGTGGTTATACGGATCGAGATAAACGTGCGACGGAGTCACCTAGTGCAG”, the binding signal is 4120 fluorescence intensity (a.u.).

As for “CGGGCGCCATGCCGTCAATCACACGCCATACAGATCAAACCGGAGTCACCTAGTGCAG”, the binding signal was 3460 fluorescence intensity (a.u.).

As for “AACTTCTCGCGTGTCCTTCTCGTACTGGGCTGGGCTGGGCCGGAGTCACCTAGTGCAG”, the binding signal is 3840 fluorescence intensity (a.u.).

Turning to “CAGGCTGACAGGTGGGTCCAGGTATAATCAGAGTCCACGTCGGAGTCACCTAGTGCAG”, the binding signal was 4330 fluorescence intensity (a.u.). The value for “GACGATCGAGCACCAAATCAGCAAGAGCGCCGTGACATTTCGGAGTCACCTAGTGCAG” was 12600 fluorescence intensity (a.u.).

As to “AACGCCCAGATCGATTCAGGCTGTGTCCCATACTCCCATACGGAGTCACCTAGTGCAG”, the binding signal was 3540 fluorescence intensity (a.u.). The same measure for “GCACTTACGGGTGGTGATTGTAGTGTGCGTGTGTGTCTTTCGGAGTCACCTAGTGCAG”: 3740 fluorescence intensity (a.u.); for “GTCGAGCTGGCACAAATATTCGCGTCAAGAGGGGTGAGACCGGAGTCACCTAGTGCAG”: 3280 fluorescence intensity (a.u.). The same measure for “GGAGGTTCAAATTTAGATGAAATGATGAGGATGCTCTAAGCGGAGTCACCTAGTGCAG”: 3670 fluorescence intensity (a.u.); for “TTAATAAACTGACCGCATCACCCGCCGTACGTCGCCGTCGCGGAGTCACCTAGTGCAG”: 3670 fluorescence intensity (a.u.); for “CCATTCCCCTAGTTTCCCCTCTCTTTTAGCCACCCTATCCCGGAGTCACCTAGTGCAG”: 4000 fluorescence intensity (a.u.). As for “AGAATTTTGCAGACCGAGGCTTGGCCACCGAGGCGCAAGCCGGAGTCACCTAGTGCAG”, the binding signal is 3790 fluorescence intensity (a.u.). The same measure for “CGGATCTTTTAAGCCTAATTGCGTCATGATTTGACAATGTCGGAGTCACCTAGTGCAG”: 3540 fluorescence intensity (a.u.); for “AGGAATCAAAATCAGCACGTATGCACTAACACAAGCATCACGGAGTCACCTAGTGCAG”: 6920 fluorescence intensity (a.u.).

“GAGGAGGGAGACAGAAGGGAAAGAAACGCGTCCGTCAACGCGGAGTCACCTAGTGCAG”: the binding signal is 3390 fluorescence intensity (a.u.). The same measure for “CCACAACACGTTAGCACCTCATCGGCCCAATCTTGAAAGCCGGAGTCACCTAGTGCAG”: 4130 fluorescence intensity (a.u.); for “AAAGGATCAGAGCCGTACACGTGGCGTCCACGTCCACCCCCGGAGTCACCTAGTGCAG”: 26400 fluorescence intensity (a.u.); for “GACCAAGATGACAAAGATTACTATTATACTGATGATAACCCGGAGTCACCTAGTGCAG”: 34100 fluorescence intensity (a.u.). The value for “GAGCAATCCATGGAAATGGAATGACGCAATCAGAGGTGACCGGAGTCACCTAGTGCAG” was 4560 fluorescence intensity (a.u.); that for “ACACAATTCACGTGCTCCCAACTTCCCAAGTCCACATCACCGGAGTCACCTAGTGCAG” was 7000 fluorescence intensity (a.u.). The value for “GTGGTTCCTGAACCTGGCCTCCCTCTCACTGATGATGACGCGGAGTCACCTAGTGCAG” was 3450 fluorescence intensity (a.u.); that for “GCAATTCACTCCAGTTCACTTTGCCAGCTTGTCTCTCTGACGGAGTCACCTAGTGCAG” was 3520 fluorescence intensity (a.u.). Turning to “CGCTGCTCCGGTTTTAAATGTTCGCTCTGGAGCCTCTTGTCGGAGTCACCTAGTGCAG”, the binding signal is 12300 fluorescence intensity (a.u.). The same measure for “GTGTGCACGTACGTGTAGCCGCCGCCGCAGATAGTACACCCGGAGTCACCTAGTGCAG”: 4250 fluorescence intensity (a.u.); for “AACGTGAATCTGAGATCGGATGCTGTGCCAAATAATGCCGCGGAGTCACCTAGTGCAG”: 3770 fluorescence intensity (a.u.); for “TGTGGCAAGAGCATTTGTTTGGTTTGATGCCAGCTCAAAGCGGAGTCACCTAGTGCAG”: 3860 fluorescence intensity (a.u.). The same measure for “AAACAAGTGCGATGTAGTTCATCATCAGCTGCGTCCGGTGCGGAGTCACCTAGTGCAG”: 3340 fluorescence intensity (a.u.); for “GTGTCAGATGAAGGCCGGGTCAAATTAGCCACGTAGGCGCCGGAGTCACCTAGTGCAG”: 11500 fluorescence intensity (a.u.). The value for “AATGTGTTAACTAATCAACTCGTCTCCCATCTCCTGCAAGCGGAGTCACCTAGTGCAG” was 17600 fluorescence intensity (a.u.); that for “TACCATCTGCGCTCCCGGTGATGAAGTAGTCAGCAGGAGACGGAGTCACCTAGTGCAG” was 3720 fluorescence intensity (a.u.); that for “ATGTCGGAGGTCCTCAGCAGGGTGGCATGCGGCATCGGTGCGGAGTCACCTAGTGCAG” was 3140 fluorescence intensity (a.u.). On to “AGAGGATCCAATGCAATGCAATGTGATGTGAAGTTTTACCCGGAGTCACCTAGTGCAG”, for which the binding signal was 3500 fluorescence intensity (a.u.). “GTAATGTTGCCAAATCACAAGATCGCACACCCAATTGATCCGGAGTCACCTAGTGCAG”: the binding signal is 25600 fluorescence intensity (a.u.). The value for “AACAAAAGGGCGCAGTCACCGGCCTCCTCATATACACGCGCGGAGTCACCTAGTGCAG” was 3280 fluorescence intensity (a.u.); that for “CGGCGTCGAGGGCGGAGTGGGAGACAGCGCCAGGGACGTGCGGAGTCACCTAGTGCAG” was 3910 fluorescence intensity (a.u.); that for “AGCCGTCTGGGATCTACGGTGGTTATGGTCGCGAGAGCTCCGGAGTCACCTAGTGCAG” was 3470 fluorescence intensity (a.u.). As to “AACACGAAAATGAAAGGGAGGGGCTTTCCTTAGCGATTAACGGAGTCACCTAGTGCAG”, the binding signal was 3830 fluorescence intensity (a.u.).
